Assay results taken from paper PMC11213707.
These are yes or no findings as the source states them, for the method shown. Some binding calls cover weakened binding; strength is not graded here.

The chains behind the UniProt entries cited, without tags or fusion partners. Residues count along the entry.
UniProt P56536, residues 2-955: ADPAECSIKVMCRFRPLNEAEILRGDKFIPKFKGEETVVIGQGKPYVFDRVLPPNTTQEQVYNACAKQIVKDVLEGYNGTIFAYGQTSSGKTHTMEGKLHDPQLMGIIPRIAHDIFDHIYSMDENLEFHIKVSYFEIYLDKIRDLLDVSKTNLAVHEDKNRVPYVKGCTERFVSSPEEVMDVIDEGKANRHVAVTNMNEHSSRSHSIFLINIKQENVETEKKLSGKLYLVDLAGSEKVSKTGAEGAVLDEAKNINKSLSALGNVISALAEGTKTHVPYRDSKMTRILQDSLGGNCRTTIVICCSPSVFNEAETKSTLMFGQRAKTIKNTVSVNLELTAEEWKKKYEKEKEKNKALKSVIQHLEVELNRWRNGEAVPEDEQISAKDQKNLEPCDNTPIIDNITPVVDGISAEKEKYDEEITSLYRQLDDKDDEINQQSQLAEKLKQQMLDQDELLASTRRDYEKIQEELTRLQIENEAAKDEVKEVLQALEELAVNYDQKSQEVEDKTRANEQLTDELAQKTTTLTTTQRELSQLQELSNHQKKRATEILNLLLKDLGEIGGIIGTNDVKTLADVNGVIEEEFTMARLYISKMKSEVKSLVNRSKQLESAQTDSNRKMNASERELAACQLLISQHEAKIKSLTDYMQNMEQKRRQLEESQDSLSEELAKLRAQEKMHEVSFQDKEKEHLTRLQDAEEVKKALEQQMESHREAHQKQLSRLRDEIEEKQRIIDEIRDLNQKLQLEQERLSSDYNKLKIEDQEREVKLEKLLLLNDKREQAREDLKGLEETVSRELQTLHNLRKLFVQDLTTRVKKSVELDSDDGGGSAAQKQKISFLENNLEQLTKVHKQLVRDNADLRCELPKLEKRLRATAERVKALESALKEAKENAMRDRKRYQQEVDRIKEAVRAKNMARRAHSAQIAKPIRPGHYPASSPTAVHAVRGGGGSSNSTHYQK

Biological target: His-Kif5C (KHC), wild type, the heavy chain of Kinesin-1^WT (rat) (UniProt P56536)
Test: SEC; KHC (His-KIF5C or an elbow variant) and KLC1 co-expressed in E. coli BL21(DE3) from two plasmids, His-Trap, then Superose6 10/300 in 20 mM HEPES pH 7.4, 150 mM NaCl, 1 mM MgCl2, 0.1 mM ADP, 0.5 mM TCEP; fractions on Coomassie-stained gels

binding: binds
Substance: His-Kif5C (KHC), wild type, the heavy chain of Kinesin-1^WT (from UniProt P56536 2-955)
